Data as given in patent US20240108734A1, “METHODS FOR TREATING AND AMELIORATING CANCER” (The Regents of the University of California, priority 2021, published 2024).
These are yes or no findings as the source states them, for the method shown. In cells and extracts the contact can be indirect. Some entries that bind do so weakly or less than the wild type.

Protein sequences, listed by entry. Tags and fused reporters are not part of them.
UniProt Q9NRW3: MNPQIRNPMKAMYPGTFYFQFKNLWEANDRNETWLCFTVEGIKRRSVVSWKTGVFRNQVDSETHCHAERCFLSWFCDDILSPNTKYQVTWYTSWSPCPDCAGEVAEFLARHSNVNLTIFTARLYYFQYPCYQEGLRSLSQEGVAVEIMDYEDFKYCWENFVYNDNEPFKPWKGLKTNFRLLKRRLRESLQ

What was measured:
[1] = biological target: T1, ADAR1 p150 (adenosine deaminase acting on RNA 1, p150 isoform) (human) (UniProt P55265); experiment: co-immunoprecipitation (anti-FLAG beads, Western blot for ADAR1), HEK293T cells
T1 sequence: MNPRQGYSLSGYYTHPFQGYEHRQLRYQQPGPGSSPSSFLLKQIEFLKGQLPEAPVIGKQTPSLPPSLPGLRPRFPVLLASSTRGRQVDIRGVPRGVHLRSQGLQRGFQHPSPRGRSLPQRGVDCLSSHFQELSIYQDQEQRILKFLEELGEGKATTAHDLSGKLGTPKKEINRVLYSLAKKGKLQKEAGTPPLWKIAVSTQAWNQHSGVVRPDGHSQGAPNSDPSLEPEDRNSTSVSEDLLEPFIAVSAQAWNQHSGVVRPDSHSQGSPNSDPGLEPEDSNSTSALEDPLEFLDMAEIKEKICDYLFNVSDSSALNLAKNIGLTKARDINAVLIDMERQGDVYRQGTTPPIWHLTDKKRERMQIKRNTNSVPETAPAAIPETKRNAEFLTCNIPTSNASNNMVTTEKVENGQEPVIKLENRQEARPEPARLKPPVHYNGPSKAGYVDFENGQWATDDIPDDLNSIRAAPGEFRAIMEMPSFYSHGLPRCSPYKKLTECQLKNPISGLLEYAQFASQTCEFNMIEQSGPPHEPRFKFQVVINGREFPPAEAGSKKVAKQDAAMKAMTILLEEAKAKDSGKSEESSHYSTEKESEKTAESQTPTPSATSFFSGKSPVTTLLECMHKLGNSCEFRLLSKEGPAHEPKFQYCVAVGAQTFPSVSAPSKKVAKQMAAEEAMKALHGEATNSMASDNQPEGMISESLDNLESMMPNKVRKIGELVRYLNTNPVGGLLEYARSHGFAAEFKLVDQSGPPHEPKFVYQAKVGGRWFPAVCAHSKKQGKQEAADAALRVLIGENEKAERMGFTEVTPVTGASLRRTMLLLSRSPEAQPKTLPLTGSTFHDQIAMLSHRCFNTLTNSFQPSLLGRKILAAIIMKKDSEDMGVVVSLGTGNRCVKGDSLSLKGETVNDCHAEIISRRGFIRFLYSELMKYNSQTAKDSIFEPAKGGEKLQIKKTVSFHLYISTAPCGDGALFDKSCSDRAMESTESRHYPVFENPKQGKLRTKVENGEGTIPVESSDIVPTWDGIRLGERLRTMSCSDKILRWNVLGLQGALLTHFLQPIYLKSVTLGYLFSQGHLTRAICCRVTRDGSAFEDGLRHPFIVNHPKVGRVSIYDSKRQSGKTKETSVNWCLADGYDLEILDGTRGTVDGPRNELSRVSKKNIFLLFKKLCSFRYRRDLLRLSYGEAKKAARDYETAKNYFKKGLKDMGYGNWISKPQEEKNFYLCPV

[2] = biological target: T1, ADAR1 p150 (adenosine deaminase acting on RNA 1, p150 isoform) (human); experiment: co-immunoprecipitation from transfected HEK293T lysate on anti-FLAG M2 magnetic beads, Western blot probed for ADAR1

binding [1]: binds
binding [2]: binds
Substance: APOBEC3C-FLAG (from UniProt Q9NRW3 1-190) (enzyme)
